Laboratory results: PubChem BioAssay AID720504 (National Center for Advancing Translational Sciences (NCATS), 2013)
The whole screen tested about 360,000 compounds, of which about 10,000 (2.8%) were called active. The shares of active, inactive and inconclusive entries below differ from those in the screen. Calls come from the whole dose curve; as a rule, active = well fitted inhibition curve with a large enough effect; inconclusive = small, poorly fitted or top-dose-only effect; inactive = flat fitted curve, though single readings scatter. Where the call is inconclusive, the potency comes from a doubtful curve fit.

Amino acid sequences for entries named in this document (tags omitted).
UniProt P53350, whole entry, looked up: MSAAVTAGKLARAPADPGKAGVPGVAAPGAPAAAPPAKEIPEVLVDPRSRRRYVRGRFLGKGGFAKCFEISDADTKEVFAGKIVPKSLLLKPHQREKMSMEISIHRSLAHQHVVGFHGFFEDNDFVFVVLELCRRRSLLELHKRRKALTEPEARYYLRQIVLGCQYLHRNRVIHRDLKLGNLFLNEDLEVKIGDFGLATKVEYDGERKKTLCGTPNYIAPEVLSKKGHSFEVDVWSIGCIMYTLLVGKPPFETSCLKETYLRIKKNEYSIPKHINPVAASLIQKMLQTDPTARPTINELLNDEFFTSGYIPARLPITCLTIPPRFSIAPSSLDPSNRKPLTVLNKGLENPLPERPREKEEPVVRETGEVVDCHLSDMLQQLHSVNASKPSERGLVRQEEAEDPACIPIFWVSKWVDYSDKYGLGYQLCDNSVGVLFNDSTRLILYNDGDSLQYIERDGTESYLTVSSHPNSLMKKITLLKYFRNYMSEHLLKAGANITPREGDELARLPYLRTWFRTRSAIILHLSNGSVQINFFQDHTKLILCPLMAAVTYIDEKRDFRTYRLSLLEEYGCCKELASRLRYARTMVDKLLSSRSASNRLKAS

target: Serine/threonine-protein kinase PLK1 (Homo sapiens) (UniProt P53350); assay: qHTS for Inhibitors of PLK1-PDB (polo-like kinase 1 - polo-box domain): Primary Screen; conditions: Plk1 PBD binding of FITC phosphopeptide, fluorescence polarization; note: nearly all actives have a fitted effect of over 65% in size; for max response, negative = inhibition: series mostly up to about 57 µM
% is set by controls: 0 for no effect and ±100 for the full control effect; potency is the fitted concentration of half-maximal effect.

| SMILES | Potency | max response, negative = inhibition |
| --- | --- | --- |
| c1ccc2sc(SN3CCOCC3)nc2c1 | active: 21.2 µM |  |
| N=C(SC1CC(=O)N(c2ccc(F)cc2)C1=O)N1N=C(c2ccccc2)CC1c1ccccc1 (stereo not drawn) |  | inactive: -14.7% |
| O=C(c1cccc(F)c1)N1CCN(C(=O)C2CC2)CC1 |  | inactive: -9.3% |
| CCc1nc(N)nc(N)c1-c1ccc(Cl)cc1 |  | inactive: -13.7% |
| CN(C)CCn1c2ccccc2c2nc3ccc([N+](=O)[O-])cc3cc21 |  | inactive: -11.3% |
| Cc1ccc(N2CSC3=C(C#N)C(c4cccs4)CC(=O)N3C2)cc1 (stereo not drawn) | active: 15 µM |  |
| CCC(C)N=C1Sc2nc3ccc(C)cc3cc2CN1CCOC (stereo not drawn) | active: 23.8 µM |  |
| Cc1ccc(OCC(=O)Nc2ccc(C(=O)Nc3ccccc3C(=O)O)cc2)cc1C | inconclusive: 29.9 µM [inhibitor, partial curve] |  |
| O=C(CCN1C(=O)C2C3CC(C(Br)C3Br)C2C1=O)OCC(=O)c1ccccc1 (stereo not drawn) | active: 26.7 µM |  |
| O=C(NCCc1cccc(F)c1)[C@@H]1CSC2c3ccccc3C(=O)N21 (stereo partly drawn) | inconclusive: 37.7 µM [inhibitor, partial curve] |  |
| Cc1c(Cl)cccc1N1CC(C)(C)C1=O | active: 26.7 µM |  |
| Cc1ccc(CN2CCN(C(=O)c3ccncc3)CC2)cc1 |  | inactive: -1.8% |
| Cc1nc2sc(C(c3ccc(Br)cc3)N3CC(C)OC(C)C3)c(O)n2n1 (stereo not drawn) |  | inconclusive: -34.3% [inhibitor] |
| O=C(NCc1ccc(Cl)cc1)NCC(F)(F)F | active: 29.9 µM |  |
| Cc1ccc(S(=O)(=O)/N=C(/Nc2ccccn2)c2ccc(Cl)cc2)cc1 |  | inactive: -1.19% |
| CN(C)/C=N/C(=S)Nc1ccc(Cl)c(Cl)c1 | active: 23.8 µM |  |
| CCOc1ccc(NC(=O)CN2C(=O)NC(C)(c3ccc(OC(F)F)cc3)C2=O)cc1 (stereo not drawn) | inconclusive: 29.9 µM [inhibitor, single point] |  |
| CC[C@@]1(c2cccc(C)c2)C(=O)N(C(=O)OC)N1C(=O)OC | active: 9.47 µM |  |
| O=C(NC1CCCC1)C1CCCN(S(=O)(=O)c2cnc[nH]2)C1 (stereo not drawn) | inconclusive: 23.8 µM [inhibitor, partial curve] |  |
| C=CCn1c(N)c(C(=O)N2CCN(C)CC2)sc1=S | inconclusive: 21.2 µM [inhibitor, partial curve] |  |
| CCOC(=O)c1c(C)[nH]c(C(=O)/C(C#N)=C/c2ccc(OC)c(OC)c2)c1C | active: 16.8 µM |  |
| COc1cc(/C=N\N=C2/SC(CC(=O)O)C(=O)N2c2ccc(O)cc2)ccc1O (stereo not drawn) |  | inactive: -1.38% |
| CCC(=O)Nc1ccc(C(=O)NNC(=O)c2cccc(C)c2)cc1 | inconclusive: 29.9 µM [inhibitor, single point] |  |
| C/C(=N\NC(=O)c1cc2ccccc2cc1O)c1ccccn1 | inconclusive: 26.7 µM [inhibitor, single point] |  |
| COC(=O)Cc1ccc(NC(=S)NC(C)(C)C)cc1 |  | inactive: -7.84% |

| SMILES | Potency | max response, negative = inhibition |
| --- | --- | --- |
| COC(=O)c1ccc(C(=O)OC)c(NC(=O)CSc2cccc[n+]2[O-])c1 | active: 23.8 µM |  |
| O=C(CCS(=O)(=O)c1ccc2c(c1)NC(=O)CS2)NCCc1ccc(Cl)cc1 | active: 16.8 µM |  |
| OCCNc1ncnc2c1ncn2[C@H]1CN(Cc2ccc(Cl)cc2)C[C@@H](CO)O1 |  | inactive: -0.471% |
| O=C(Oc1cccc(-n2cnnn2)c1)c1ccccc1 | inconclusive: 23.8 µM [inhibitor, single point] |  |
| CCc1cccc(CC)c1NC(=O)CO/N=C(\N)CC(=O)NC1CCCCC1 | inconclusive: 26.7 µM [inhibitor, single point] |  |
| Cc1nc(NC(=O)c2ccc(Cl)cc2)sc1Cc1ccc2c(c1)OCO2 | inconclusive: 2.99 µM [inhibitor, full curve] |  |
| Cc1nnc(SCC(=O)Nc2sc3c(c2C(N)=O)CCC(C)C3)[nH]c1=O (stereo not drawn) | inconclusive: 26.7 µM [inhibitor, partial curve] |  |
| CC(/C=N/n1c(-c2ccc(C)cc2)n[nH]c1=S)=C\c1ccco1 | inconclusive: 18.9 µM [inhibitor, partial curve] |  |
| C[C@H]1CN([C@@H](C)CO)C(=O)CCCn2cc(nn2)CO[C@@H]1CN(C)C(=O)Nc1ccc2c(c1)OCO2 |  | inactive: -6.4% |
| Cc1cc(C)c2c(n1)sc1c(=O)n(-c3ccccc3)c(=O)[nH]c12 | inconclusive: 26.7 µM [inhibitor, partial curve] |  |
| COc1ccc(S(=O)(=O)Nc2ccc(N(C)C(C)=O)cc2)cc1 |  | inactive: -0.75% |
| CC1(C)CC(=O)C2=C(C1)NC1=C(C(=O)c3ccccc31)C2c1cccnc1 (stereo not drawn) | inconclusive: 16.8 µM [inhibitor, partial curve] |  |
| N#CC1=C(S)N(c2ccccc2)C(c2ccc(-c3cc(Cl)ccc3Cl)o2)NC1=O (stereo not drawn) | inconclusive: 26.7 µM [inhibitor, partial curve] |  |
| CN(Cc1ccccc1)C(=O)c1[nH]cnc1C(=O)NCC(=O)OC(C)(C)C |  | inactive: 0.159% |
| Cc1ccc(-c2cc(C(=O)O)c3cc(Br)ccc3n2)o1 | active: 11.9 µM |  |
| O=S(=O)(Nc1ccc(S(=O)(=O)N2CCCCC2)cc1)c1ccc(Br)s1 | inconclusive: 21.2 µM [inhibitor, partial curve] |  |
| CCCOc1ccc(C(=O)Nc2cc(-c3nn4c(C)nnc4s3)ccc2C)cc1 | inconclusive: 23.8 µM [inhibitor, single point] |  |
| Cc1c(C(=O)N2CCCCC2)c(S(=O)(=O)NCc2ccccc2Cl)c(C)n1C | active: 26.7 µM |  |
| O=C(c1ccc(N2CCOCC2)c([N+](=O)[O-])c1)N1CCN(c2ccccc2)CC1 | inconclusive: 26.7 µM [inhibitor, single point] |  |
| OCCN1CCN(C(=S)c2ccc(Br)cc2)CC1 | active: 6.7 µM |  |
| CC(=O)CCc1oc2c([N+](=O)[O-])cccc2c1-c1ccc(C)o1 | inconclusive: 29.9 µM [inhibitor, partial curve] |  |
| Cc1ccsc1C1C(C#N)=C(N)OC2=C1C(=O)CC(C)C2 (stereo not drawn) | inconclusive: 13.4 µM [inhibitor, partial curve] |  |
| Cc1nnc(NC(=O)c2cccc(S(=O)(=O)N3CCCC3)c2)s1 |  | inactive: -6.58% |
| CS(=O)(=O)c1cccc(C(=O)NCc2ccc(F)cc2)c1 | inconclusive: 18.9 µM [inhibitor, partial curve] |  |
| COc1ccc(S(=O)(=O)N2CCN(Cc3ccc(OC)c(OC)c3)CC2)cc1 |  | inconclusive: -31% [inhibitor] |

| SMILES | Potency | max response, negative = inhibition |
| --- | --- | --- |
| COc1cccc(Oc2ccc(OC)cc2C(=O)O)c1 |  | inactive: -0.183% |
| CCc1[nH]c(=S)c(C#N)c(-c2ccccc2)c1C(=O)OC | inconclusive: 23.8 µM [inhibitor, partial curve] |  |
| Cc1ccc(C2NC(=O)c3c(sc(C)c3C)N2)c(O)c1 (stereo not drawn) | inconclusive: 21.2 µM [inhibitor, partial curve] |  |
| CN(CC(=O)NCc1ccc2c(c1)OCO2)S(=O)(=O)c1ccc(Cl)cc1 | inconclusive: 26.7 µM [inhibitor, partial curve] |  |
| COC(=O)CNC(=O)C1CC(=O)N(CCc2ccc(F)cc2)C1 (stereo not drawn) |  | inconclusive: -32.4% [inhibitor] |
| Clc1ccc(-n2nnc(-c3cccnc3Cl)n2)cn1 | inconclusive: 42.3 µM [inhibitor, partial curve] |  |
| CCCn1c(N)c(C(=O)CSc2ncc(C(F)(F)F)cc2Cl)c(=O)[nH]c1=O | inconclusive: 29.9 µM [inhibitor, partial curve] |  |
| COc1ccc(C(=S)NC2CCCCC2)cc1 | active: 23.8 µM |  |
| N=C1/C(=C/c2ccc(OCc3ccccc3F)cc2)C(=O)N=C2SC(CC(=O)N3CCOCC3)=NN12 | active: 37.7 µM |  |
| Cc1ccc(S(=O)(=O)/N=C/c2ccc(N(C)C)cc2)cc1 | inconclusive: 26.7 µM [inhibitor, partial curve] |  |
| COc1ccc(NC(=O)/C(Cl)=C(/Cl)S(=O)Cc2ccc(Cl)cc2)cn1 (stereo not drawn) | active: 1.34 µM |  |
| Cc1c(C)c2ccc(OCC(=O)NCCN3CCOCC3)c(C)c2oc1=O |  | inactive: -6.72% |
| COc1ccc(S(=O)(=O)N2CCCCCC2)cc1C(=O)N(C)Cc1cccc(OC)c1OC |  | inactive: -7.8% |
| CC(=O)c1ccc(S(=O)(=O)Nc2ccc(C(=O)NCCCn3ccnc3)cc2)cc1 |  | inconclusive: -30.8% [inhibitor] |
| Cc1c(NC(=S)N/C(=N/S(=O)(=O)c2ccccc2)c2ccccc2)c(=O)n(-c2ccccc2)n1C | inconclusive: 29.9 µM [inhibitor, partial curve] |  |
| Cc1ccc2nc3cc([N+](=O)[O-])cc([N+](=O)[O-])c3cc2c1 | active: 0.947 µM |  |
| COc1ccc(NC(=S)Nc2ccc3cn[nH]c3c2)cc1 | inconclusive: 29.9 µM [inhibitor, single point] |  |
| COCCCNC(=O)c1ccc(CS(=O)(=O)c2ccc(OC)cc2)o1 | inconclusive: 26.7 µM [inhibitor, single point] |  |
| CCN(CCCNc1cc2c(c(N)c1S(=O)(=O)O)C(=O)c1ccccc1C2=O)c1ccccc1 | inconclusive: 29.9 µM [inhibitor, single point] |  |
| Cc1cccc(-n2cnc3cc([N+](=O)[O-])ccc32)c1 | active: 16.8 µM |  |
| COc1ccc(NC(=O)CSc2nc3c(c(-c4cccs4)c2C#N)CN(C)CC3)cc1OC | inconclusive: 29.9 µM [inhibitor, partial curve] |  |
| Cc1ccc(S(=O)(=O)N[C@@H](Cc2ccccc2)C(=O)CCl)cc1 | inconclusive: 11.9 µM [inhibitor, partial curve] |  |
| COc1cccc(NC(=O)CSc2nnc(CN3CCOCC3)n2C)c1 | inconclusive: 26.7 µM [inhibitor, single point] |  |

20 entries from above, tab-delimited:
SMILES	Potency	max response, negative = inhibition
Cc1ccc(C2NC(=O)c3c(sc(C)c3C)N2)c(O)c1 (stereo not drawn)	inconclusive: 21.2 µM [inhibitor, partial curve]	
CN(CC(=O)NCc1ccc2c(c1)OCO2)S(=O)(=O)c1ccc(Cl)cc1	inconclusive: 26.7 µM [inhibitor, partial curve]	
COC(=O)CNC(=O)C1CC(=O)N(CCc2ccc(F)cc2)C1 (stereo not drawn)		inconclusive: -32.4% [inhibitor]
Clc1ccc(-n2nnc(-c3cccnc3Cl)n2)cn1	inconclusive: 42.3 µM [inhibitor, partial curve]	
CCCn1c(N)c(C(=O)CSc2ncc(C(F)(F)F)cc2Cl)c(=O)[nH]c1=O	inconclusive: 29.9 µM [inhibitor, partial curve]	
COc1ccc(C(=S)NC2CCCCC2)cc1	active: 23.8 µM	
N=C1/C(=C/c2ccc(OCc3ccccc3F)cc2)C(=O)N=C2SC(CC(=O)N3CCOCC3)=NN12	active: 37.7 µM	
Cc1ccc(S(=O)(=O)/N=C/c2ccc(N(C)C)cc2)cc1	inconclusive: 26.7 µM [inhibitor, partial curve]	
COc1ccc(NC(=O)/C(Cl)=C(/Cl)S(=O)Cc2ccc(Cl)cc2)cn1 (stereo not drawn)	active: 1.34 µM	
Cc1c(C)c2ccc(OCC(=O)NCCN3CCOCC3)c(C)c2oc1=O		inactive: -6.72%
COc1ccc(S(=O)(=O)N2CCCCCC2)cc1C(=O)N(C)Cc1cccc(OC)c1OC		inactive: -7.8%
CC(=O)c1ccc(S(=O)(=O)Nc2ccc(C(=O)NCCCn3ccnc3)cc2)cc1		inconclusive: -30.8% [inhibitor]
Cc1c(NC(=S)N/C(=N/S(=O)(=O)c2ccccc2)c2ccccc2)c(=O)n(-c2ccccc2)n1C	inconclusive: 29.9 µM [inhibitor, partial curve]	
Cc1ccc2nc3cc([N+](=O)[O-])cc([N+](=O)[O-])c3cc2c1	active: 0.947 µM	
COc1ccc(NC(=S)Nc2ccc3cn[nH]c3c2)cc1	inconclusive: 29.9 µM [inhibitor, single point]	
COCCCNC(=O)c1ccc(CS(=O)(=O)c2ccc(OC)cc2)o1	inconclusive: 26.7 µM [inhibitor, single point]	
CCN(CCCNc1cc2c(c(N)c1S(=O)(=O)O)C(=O)c1ccccc1C2=O)c1ccccc1	inconclusive: 29.9 µM [inhibitor, single point]	
Cc1cccc(-n2cnc3cc([N+](=O)[O-])ccc32)c1	active: 16.8 µM	
COc1ccc(NC(=O)CSc2nc3c(c(-c4cccs4)c2C#N)CN(C)CC3)cc1OC	inconclusive: 29.9 µM [inhibitor, partial curve]	
Cc1ccc(S(=O)(=O)N[C@@H](Cc2ccccc2)C(=O)CCl)cc1	inconclusive: 11.9 µM [inhibitor, partial curve]	
